Results published in the supplement of paper PMC12819154, “High-throughput peptide-centric local stability assay extends protein–ligand identification to membrane proteins, tissues and bacteria” (Nature Structural & Molecular Biology, 2025).
This is one part of the list. Small differences around the control level are noise.

By UniProt entry, the sequences of proteins in these tests, tags left out. Where a name states a change or a piece, a line headed by the entry shows the natural chain unless it says otherwise.
UniProt Q96IY4: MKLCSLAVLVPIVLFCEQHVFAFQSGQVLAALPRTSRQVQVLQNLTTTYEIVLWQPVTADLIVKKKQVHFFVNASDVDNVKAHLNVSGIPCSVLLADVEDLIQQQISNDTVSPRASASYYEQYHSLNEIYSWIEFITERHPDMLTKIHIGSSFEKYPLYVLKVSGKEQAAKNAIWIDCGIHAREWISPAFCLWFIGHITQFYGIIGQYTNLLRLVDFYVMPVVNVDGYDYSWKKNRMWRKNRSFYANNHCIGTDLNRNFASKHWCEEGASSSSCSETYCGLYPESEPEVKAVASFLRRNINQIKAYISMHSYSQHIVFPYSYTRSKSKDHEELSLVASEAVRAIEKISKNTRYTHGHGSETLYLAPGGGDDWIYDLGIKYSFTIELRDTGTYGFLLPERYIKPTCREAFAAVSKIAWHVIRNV
UniProt Q96K58: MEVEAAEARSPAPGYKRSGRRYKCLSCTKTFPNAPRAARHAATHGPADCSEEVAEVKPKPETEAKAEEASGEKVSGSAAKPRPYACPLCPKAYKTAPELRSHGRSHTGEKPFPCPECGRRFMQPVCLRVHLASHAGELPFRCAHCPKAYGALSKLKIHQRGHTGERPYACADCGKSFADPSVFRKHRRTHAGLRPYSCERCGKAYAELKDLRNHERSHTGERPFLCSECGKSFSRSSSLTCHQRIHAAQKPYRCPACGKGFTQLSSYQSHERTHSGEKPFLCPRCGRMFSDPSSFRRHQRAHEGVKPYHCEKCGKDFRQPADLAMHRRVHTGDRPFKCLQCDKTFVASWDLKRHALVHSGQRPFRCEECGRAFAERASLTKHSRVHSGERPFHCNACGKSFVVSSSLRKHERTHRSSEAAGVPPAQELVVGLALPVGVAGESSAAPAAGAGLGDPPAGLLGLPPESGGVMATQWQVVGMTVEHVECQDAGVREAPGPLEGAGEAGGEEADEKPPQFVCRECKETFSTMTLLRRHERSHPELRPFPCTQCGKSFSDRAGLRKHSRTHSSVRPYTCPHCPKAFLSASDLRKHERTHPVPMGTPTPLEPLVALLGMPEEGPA
UniProt Q96L93: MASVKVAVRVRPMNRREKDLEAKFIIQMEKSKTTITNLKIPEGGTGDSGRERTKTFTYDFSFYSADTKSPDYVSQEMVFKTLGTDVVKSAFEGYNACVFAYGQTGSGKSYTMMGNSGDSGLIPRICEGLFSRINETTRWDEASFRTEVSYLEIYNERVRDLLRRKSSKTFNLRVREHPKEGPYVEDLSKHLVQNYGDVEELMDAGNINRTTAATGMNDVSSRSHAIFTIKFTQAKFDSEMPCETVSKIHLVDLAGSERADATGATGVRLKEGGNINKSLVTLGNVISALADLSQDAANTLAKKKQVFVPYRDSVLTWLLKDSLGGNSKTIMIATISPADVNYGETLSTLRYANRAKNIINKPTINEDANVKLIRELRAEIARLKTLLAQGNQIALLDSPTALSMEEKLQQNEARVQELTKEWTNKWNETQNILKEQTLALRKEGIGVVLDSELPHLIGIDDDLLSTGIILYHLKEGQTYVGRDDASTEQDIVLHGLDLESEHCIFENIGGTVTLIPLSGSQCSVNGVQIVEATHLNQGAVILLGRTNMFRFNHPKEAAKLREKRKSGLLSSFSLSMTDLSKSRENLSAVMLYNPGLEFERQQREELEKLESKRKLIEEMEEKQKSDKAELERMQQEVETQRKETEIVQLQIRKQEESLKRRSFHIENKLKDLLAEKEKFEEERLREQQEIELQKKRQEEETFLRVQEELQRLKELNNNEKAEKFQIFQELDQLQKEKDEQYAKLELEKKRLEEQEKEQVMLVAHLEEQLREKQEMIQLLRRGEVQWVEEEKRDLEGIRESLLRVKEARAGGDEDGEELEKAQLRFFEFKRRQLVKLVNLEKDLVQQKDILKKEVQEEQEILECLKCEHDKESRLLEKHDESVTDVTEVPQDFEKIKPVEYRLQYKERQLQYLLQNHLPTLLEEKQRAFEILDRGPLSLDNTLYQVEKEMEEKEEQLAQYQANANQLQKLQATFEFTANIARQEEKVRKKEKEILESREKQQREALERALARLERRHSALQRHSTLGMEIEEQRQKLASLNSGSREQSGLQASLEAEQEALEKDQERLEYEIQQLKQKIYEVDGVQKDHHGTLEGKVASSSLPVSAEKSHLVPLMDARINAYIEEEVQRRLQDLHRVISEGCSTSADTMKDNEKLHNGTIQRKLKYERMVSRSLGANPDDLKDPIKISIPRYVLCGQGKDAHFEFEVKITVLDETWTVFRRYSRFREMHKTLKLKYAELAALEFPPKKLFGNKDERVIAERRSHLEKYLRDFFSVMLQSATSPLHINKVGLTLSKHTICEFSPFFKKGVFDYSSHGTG
UniProt Q96HR9: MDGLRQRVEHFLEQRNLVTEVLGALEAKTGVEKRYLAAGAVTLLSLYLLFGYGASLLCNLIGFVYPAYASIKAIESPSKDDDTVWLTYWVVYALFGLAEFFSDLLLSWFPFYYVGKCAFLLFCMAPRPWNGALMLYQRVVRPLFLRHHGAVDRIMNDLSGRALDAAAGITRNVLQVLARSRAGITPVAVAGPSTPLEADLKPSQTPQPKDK
UniProt Q96N46: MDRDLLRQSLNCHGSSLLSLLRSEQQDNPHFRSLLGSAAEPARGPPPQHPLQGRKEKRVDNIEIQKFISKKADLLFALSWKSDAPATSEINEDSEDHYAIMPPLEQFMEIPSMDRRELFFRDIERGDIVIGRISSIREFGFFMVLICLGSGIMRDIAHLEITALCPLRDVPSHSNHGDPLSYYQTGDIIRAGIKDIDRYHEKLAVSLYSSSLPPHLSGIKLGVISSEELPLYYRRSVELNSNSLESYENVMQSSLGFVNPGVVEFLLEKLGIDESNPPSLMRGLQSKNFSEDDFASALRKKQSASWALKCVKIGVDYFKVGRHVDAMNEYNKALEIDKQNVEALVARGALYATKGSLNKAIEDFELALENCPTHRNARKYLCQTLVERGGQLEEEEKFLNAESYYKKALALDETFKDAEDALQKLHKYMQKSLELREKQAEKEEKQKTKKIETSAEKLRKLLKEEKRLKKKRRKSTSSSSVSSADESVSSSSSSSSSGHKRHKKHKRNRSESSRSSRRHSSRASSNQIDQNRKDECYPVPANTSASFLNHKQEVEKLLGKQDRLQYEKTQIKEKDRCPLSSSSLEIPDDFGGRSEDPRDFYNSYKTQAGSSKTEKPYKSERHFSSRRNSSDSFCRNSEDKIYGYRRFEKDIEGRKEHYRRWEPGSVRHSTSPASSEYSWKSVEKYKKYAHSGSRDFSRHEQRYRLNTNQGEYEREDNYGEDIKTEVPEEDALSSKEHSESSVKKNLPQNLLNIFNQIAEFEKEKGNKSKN
UniProt Q96P11: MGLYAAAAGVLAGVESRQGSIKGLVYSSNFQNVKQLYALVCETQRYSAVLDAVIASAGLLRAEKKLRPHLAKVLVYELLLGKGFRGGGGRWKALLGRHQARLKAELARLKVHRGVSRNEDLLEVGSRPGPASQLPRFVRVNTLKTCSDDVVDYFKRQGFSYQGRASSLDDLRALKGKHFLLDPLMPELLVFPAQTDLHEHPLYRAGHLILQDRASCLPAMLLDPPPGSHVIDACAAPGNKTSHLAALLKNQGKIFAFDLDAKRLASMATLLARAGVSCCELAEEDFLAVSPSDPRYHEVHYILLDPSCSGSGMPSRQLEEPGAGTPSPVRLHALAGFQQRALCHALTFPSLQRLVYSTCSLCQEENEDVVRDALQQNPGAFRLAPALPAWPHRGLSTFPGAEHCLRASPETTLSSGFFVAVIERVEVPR
UniProt Q96ME7: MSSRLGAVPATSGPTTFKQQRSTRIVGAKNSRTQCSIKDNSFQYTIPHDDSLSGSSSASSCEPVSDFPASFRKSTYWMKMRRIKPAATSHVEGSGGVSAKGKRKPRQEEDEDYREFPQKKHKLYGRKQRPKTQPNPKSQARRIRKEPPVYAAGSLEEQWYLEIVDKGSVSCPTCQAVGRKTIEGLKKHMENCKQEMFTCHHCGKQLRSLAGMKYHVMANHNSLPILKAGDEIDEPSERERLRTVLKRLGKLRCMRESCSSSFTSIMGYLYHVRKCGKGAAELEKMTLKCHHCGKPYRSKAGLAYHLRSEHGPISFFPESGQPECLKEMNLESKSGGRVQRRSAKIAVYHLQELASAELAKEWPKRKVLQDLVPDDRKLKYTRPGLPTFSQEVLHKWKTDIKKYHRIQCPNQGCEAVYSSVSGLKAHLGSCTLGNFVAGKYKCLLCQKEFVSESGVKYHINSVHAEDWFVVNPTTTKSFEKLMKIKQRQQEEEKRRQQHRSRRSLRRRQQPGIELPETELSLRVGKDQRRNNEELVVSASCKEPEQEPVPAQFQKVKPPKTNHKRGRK
UniProt Q96H12: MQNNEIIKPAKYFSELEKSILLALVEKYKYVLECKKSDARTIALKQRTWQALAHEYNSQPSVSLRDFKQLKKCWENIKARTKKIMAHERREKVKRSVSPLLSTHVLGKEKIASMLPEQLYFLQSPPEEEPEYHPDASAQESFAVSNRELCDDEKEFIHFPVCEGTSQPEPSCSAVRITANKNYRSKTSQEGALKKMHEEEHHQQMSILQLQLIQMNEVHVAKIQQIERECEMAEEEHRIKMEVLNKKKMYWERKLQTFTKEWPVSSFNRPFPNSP
UniProt Q96SN7, whole entry: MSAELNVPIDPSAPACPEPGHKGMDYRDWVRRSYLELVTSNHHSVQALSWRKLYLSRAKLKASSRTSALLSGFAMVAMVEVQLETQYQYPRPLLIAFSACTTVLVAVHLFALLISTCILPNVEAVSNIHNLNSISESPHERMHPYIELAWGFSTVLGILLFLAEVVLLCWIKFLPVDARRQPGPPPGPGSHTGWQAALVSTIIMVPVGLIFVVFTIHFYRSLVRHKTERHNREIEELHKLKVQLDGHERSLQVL
UniProt Q96RT6: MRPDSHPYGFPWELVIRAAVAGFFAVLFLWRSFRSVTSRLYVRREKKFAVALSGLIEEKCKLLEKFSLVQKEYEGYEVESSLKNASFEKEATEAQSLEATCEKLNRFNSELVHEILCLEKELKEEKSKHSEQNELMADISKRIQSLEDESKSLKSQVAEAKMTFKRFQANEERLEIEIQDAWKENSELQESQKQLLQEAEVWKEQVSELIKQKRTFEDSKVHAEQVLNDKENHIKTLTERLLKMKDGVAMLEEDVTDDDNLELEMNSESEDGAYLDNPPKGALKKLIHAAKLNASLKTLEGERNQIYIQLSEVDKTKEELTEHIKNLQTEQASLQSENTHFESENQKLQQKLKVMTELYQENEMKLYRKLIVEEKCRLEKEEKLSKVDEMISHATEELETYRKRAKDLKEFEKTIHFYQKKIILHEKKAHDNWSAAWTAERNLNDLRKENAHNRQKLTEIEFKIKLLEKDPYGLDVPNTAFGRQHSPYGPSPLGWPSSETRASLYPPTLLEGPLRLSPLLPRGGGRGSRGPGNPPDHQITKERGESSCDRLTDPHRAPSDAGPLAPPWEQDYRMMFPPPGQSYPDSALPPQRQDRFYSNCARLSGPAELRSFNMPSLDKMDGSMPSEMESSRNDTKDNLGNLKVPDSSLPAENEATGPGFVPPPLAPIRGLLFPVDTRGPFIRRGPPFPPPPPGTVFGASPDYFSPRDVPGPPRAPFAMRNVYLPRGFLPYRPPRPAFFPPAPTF
UniProt Q96JG6: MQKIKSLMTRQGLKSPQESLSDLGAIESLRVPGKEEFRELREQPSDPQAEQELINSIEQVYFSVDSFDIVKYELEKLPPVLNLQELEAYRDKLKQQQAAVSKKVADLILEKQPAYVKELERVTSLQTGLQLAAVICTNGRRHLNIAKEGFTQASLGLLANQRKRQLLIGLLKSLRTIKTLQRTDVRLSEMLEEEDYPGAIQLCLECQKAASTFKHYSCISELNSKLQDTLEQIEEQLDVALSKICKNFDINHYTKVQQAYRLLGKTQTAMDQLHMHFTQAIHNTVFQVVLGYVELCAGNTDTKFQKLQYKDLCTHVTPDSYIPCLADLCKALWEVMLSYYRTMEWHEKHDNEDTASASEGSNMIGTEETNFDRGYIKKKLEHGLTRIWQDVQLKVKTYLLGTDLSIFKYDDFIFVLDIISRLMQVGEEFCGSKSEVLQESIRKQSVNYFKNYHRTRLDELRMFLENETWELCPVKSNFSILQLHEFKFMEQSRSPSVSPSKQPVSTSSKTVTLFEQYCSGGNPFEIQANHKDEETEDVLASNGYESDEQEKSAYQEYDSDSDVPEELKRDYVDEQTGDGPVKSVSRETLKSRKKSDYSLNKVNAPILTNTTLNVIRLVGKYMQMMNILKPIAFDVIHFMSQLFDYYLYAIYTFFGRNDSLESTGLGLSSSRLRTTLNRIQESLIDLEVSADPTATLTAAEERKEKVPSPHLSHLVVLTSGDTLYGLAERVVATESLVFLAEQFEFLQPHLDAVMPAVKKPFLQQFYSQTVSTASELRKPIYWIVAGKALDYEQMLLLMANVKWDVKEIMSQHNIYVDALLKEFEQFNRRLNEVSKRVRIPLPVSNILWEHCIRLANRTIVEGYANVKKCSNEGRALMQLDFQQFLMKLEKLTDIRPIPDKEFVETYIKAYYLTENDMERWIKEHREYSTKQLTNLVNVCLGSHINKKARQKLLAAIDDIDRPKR

Compound: CN[C@@H]1C[C@H]2O[C@@](C)([C@@H]1OC)n1c3ccccc3c3c4c(c5c6ccccc6n2c5c31)C(=O)NC4 [staurosporine]
Experiment: log2 fold change of tryptic peptide abundance, ligand vs vehicle (limited proteolysis) (log2 ratio); higher = more trypsin-susceptible (destabilized)
Conditions: ligand concentration: 20 uM; sample: K562 cleared lysate; digestion: 4 min, 22 C (HT-PELSA RT4min, Orbitrap Astral)

| Target | log2 fold change |
| --- | --- |
| CMTM3 (peptide sequence: PGPAVPGLR, peptide start residue: 20) (UniProt Q96MX0) | 0.0729 |
| SNF8 (peptide sequence: GVGAGAIAKK, peptide start residue: 5) (UniProt Q96H20) | 0.326 |
| SDF2 (peptide sequence: AEAHHAEL, peptide start residue: 204) (UniProt Q99470) | 0.358 |
| UniProt Q96IY4 (peptide sequence: VSGKEQAAK, peptide start residue: 163) | -0.221 |
| ZNF668 (peptide sequence: VHLASHAGELPFR, peptide start residue: 129) (UniProt Q96K58) | -0.157 |
| UniProt Q96SY0 (peptide sequence: SESNRFPLPFPFPSK, peptide start residue: 137) | 0.66 |
| ALKBH3 (peptide sequence: EFVFKEPQQVVR, peptide start residue: 53) (UniProt Q96Q83) | -0.11 |
| KIF16B (peptide sequence: ITVLDETWTVFRR, peptide start residue: 1208) (UniProt Q96L93) | 1.1 |
| PBK (peptide sequence: VIELFSVCTNEDPK, peptide start residue: 293) (UniProt Q96KB5) | -0.625 |
| WRNIP1 (peptide sequence: KSGQSYSPSR, peptide start residue: 464) (UniProt Q96S55) | 0.849 |
| SEC22A (peptide sequence: SMILSASVIR, peptide start residue: 2) (UniProt Q96IW7) | -0.11 |
| REEP6 (peptide sequence: VEHFLEQR, peptide start residue: 8) (UniProt Q96HR9) | 0.283 |
| UniProt Q96S19 (peptide sequence: VLEVASGSGQHAAHFAR, peptide start residue: 31) | 0.175 |
| C8orf37 (peptide sequence: EDDLDSLINEILEEPNLDKKPSK, peptide start residue: 60) (UniProt Q96NL8) | 0.309 |
| FIZ1 (peptide sequence: DFNAPALLER, peptide start residue: 236) (UniProt Q96SL8) | 0.646 |
| TTC14 (peptide sequence: KADLLFALSWK, peptide start residue: 71) (UniProt Q96N46) | -0.565 |
| VPS39 (peptide sequence: QLQYPNPLPVLSGAELEK, peptide start residue: 394) (UniProt Q96JC1) | 0.471 |
| C9orf72 (peptide sequence: NAESGAIDVK, peptide start residue: 74) (UniProt Q96LT7) | -0.179 |

| Target | log2 fold change |
| --- | --- |
| SPEN (peptide sequence: EQMADMAK, peptide start residue: 1318) (UniProt Q96T58) | 1.1 |
| SMG1 (peptide sequence: VNNVTSPEFTSVQHGSR, peptide start residue: 110) (UniProt Q96Q15) | 0.303 |
| NSMCE2 (peptide sequence: KAYCPQIGCSHTDIR, peptide start residue: 207) (UniProt Q96MF7) | 0.608 |
| UBXN10 (peptide sequence: ALYQDETGTMK, peptide start residue: 147) (UniProt Q96LJ8) | 0.0896 |
| NSUN5 (peptide sequence: QGFSYQGR, peptide start residue: 157) (UniProt Q96P11) | -0.649 |
| UniProt Q96PU8 (peptide sequence: MVGEMETK, peptide start residue: 1) | 0.128 |
| DOCK6 (peptide sequence: ESVLGAVLK, peptide start residue: 1410) (UniProt Q96HP0) | -0.607 |
| ZNF512 (peptide sequence: VLQDLVPDDRK, peptide start residue: 367) (UniProt Q96ME7) | -0.239 |
| UniProt Q96NA8 (peptide sequence: ALLPMAQR, peptide start residue: 366) | 0.24 |
| UniProt Q96H12 (peptide sequence: SILLALVEK, peptide start residue: 19) | 0.252 |
| UniProt Q96SN7 (peptide sequence: HNREIEELHK, peptide start residue: 230) | -0.184 |
| UniProt Q96RT6 (peptide sequence: EATEAQSLEATCEKLNR, peptide start residue: 728) | -0.317 |
| UniProt Q96LT6 (peptide sequence: ALVAEIITHLQGLQR, peptide start residue: 137) | 0.549 |
| TOE1 (peptide sequence: TLFLELIR, peptide start residue: 175) (UniProt Q96GM8) | -0.126 |
| SUCLG2 (peptide sequence: DPNVVGQLAK, peptide start residue: 109) (UniProt Q96I99) | -0.409 |
| SNX18 (peptide sequence: SENPGEISLR, peptide start residue: 13) (UniProt Q96RF0) | -0.16 |
| UniProt Q96JG6 (peptide sequence: IPLPVSNILWEHCIR, peptide start residue: 839) | 0.389 |
| PFDN5 (peptide sequence: IQQLTALGAAQATAKA, peptide start residue: 139) (UniProt Q99471) | -0.249 |

Individual results from the results shown:
log2 fold change with UniProt Q96NA8 (peptide sequence: ALLPMAQR, peptide start residue: 366) is entered as 0.24
log2 fold change with UniProt Q96H12 (peptide sequence: SILLALVEK, peptide start residue: 19) is entered as 0.252
log2 fold change with UniProt Q96RT6 (peptide sequence: EATEAQSLEATCEKLNR, peptide start residue: 728) is entered as -0.317
